Experimental data as given in paper PMC7657459, “A second hybrid-binding domain modulates the activity of Drosophila ribonuclease H1”.

Chains of the proteins cited; added tags and fusions are not shown. Lines headed by an entry give the natural chain unless they say otherwise; changes in a name come on top.
UniProt A1Z769: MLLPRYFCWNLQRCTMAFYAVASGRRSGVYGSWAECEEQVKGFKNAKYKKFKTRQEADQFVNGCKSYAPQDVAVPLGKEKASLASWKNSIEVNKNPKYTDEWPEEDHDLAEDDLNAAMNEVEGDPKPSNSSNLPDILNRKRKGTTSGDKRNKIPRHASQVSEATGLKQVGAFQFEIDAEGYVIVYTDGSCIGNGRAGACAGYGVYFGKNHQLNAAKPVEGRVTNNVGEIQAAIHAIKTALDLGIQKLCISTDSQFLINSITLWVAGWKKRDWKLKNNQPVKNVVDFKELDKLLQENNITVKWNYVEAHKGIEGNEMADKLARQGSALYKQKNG
UniProt Q9VDT1: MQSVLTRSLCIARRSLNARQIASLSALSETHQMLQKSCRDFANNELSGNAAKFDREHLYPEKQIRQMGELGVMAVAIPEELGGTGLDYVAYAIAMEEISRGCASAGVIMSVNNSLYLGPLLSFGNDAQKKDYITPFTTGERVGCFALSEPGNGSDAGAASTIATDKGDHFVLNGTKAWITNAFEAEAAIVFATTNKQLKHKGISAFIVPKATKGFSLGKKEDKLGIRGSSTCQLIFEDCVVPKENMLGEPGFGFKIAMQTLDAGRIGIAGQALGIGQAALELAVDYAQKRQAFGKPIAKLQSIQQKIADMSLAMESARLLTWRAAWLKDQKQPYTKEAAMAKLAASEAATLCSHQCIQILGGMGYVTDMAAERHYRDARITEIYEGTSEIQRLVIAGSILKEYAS
UniProt Q9VPR3: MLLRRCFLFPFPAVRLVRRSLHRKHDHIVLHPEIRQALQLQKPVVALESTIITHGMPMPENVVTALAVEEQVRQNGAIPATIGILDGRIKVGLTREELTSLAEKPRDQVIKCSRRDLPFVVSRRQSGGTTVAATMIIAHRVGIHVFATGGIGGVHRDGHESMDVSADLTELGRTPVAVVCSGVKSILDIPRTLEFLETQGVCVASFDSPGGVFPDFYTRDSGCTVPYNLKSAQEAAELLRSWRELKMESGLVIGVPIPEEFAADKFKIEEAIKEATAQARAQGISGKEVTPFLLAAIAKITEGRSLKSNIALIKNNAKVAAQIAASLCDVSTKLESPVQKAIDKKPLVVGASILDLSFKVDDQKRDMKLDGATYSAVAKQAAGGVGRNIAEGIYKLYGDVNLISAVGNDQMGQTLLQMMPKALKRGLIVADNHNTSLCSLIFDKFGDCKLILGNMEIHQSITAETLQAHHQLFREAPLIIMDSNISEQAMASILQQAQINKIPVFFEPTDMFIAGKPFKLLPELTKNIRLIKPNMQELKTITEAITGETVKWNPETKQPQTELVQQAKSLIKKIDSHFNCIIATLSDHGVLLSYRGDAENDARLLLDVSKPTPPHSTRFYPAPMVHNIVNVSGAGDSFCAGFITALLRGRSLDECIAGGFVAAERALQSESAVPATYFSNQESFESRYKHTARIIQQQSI
UniProt Q9VGC2: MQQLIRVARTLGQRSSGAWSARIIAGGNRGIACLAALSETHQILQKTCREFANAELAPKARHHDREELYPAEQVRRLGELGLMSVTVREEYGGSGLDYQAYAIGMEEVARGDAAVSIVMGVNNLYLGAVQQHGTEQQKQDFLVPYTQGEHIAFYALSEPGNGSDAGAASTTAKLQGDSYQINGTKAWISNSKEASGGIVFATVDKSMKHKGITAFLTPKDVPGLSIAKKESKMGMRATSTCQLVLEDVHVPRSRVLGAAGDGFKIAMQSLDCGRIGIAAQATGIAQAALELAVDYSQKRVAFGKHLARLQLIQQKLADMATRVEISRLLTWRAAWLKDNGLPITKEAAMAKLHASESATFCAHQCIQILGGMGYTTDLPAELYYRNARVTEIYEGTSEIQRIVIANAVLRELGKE
UniProt Q9VXY3: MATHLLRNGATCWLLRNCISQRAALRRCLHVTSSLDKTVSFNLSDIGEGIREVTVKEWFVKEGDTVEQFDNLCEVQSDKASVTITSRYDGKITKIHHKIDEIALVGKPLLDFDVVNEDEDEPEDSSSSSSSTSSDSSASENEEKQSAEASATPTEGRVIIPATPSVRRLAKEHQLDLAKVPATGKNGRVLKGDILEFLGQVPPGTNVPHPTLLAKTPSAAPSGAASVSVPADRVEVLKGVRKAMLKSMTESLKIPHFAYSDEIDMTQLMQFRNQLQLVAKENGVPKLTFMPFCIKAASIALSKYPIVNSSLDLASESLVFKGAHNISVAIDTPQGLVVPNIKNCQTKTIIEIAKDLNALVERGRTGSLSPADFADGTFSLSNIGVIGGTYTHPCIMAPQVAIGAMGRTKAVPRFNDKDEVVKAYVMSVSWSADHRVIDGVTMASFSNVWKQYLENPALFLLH
UniProt A1Z934: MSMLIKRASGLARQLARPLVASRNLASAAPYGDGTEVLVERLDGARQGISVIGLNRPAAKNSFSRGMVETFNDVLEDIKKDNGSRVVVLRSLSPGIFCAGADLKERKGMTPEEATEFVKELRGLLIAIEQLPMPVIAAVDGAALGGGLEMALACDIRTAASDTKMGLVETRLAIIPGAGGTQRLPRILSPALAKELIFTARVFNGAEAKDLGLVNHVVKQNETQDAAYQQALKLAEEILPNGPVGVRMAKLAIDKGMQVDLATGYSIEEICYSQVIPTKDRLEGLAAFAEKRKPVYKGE
UniProt Q9W022: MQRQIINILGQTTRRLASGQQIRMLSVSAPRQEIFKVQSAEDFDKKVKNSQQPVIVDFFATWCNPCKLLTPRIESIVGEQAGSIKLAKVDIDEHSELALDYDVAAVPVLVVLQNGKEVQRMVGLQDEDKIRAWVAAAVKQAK
UniProt Q7JVR6: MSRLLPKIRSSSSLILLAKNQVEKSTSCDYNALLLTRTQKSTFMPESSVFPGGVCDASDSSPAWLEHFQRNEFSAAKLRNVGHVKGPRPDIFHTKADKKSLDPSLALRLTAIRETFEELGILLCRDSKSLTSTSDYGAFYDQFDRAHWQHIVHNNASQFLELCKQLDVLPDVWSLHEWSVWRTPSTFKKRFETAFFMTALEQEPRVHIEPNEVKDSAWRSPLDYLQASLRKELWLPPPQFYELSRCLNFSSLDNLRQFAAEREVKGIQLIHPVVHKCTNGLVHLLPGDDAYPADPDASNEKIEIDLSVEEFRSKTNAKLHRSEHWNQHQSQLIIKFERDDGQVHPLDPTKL
UniProt Q9VES8: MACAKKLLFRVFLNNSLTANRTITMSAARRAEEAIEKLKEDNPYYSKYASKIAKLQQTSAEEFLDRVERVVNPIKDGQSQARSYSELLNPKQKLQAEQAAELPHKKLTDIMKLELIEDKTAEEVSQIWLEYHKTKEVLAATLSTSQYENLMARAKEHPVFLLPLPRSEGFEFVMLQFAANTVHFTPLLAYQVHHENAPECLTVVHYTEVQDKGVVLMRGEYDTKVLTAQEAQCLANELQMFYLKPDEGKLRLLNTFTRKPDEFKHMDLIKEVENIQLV
UniProt Q9VRJ4: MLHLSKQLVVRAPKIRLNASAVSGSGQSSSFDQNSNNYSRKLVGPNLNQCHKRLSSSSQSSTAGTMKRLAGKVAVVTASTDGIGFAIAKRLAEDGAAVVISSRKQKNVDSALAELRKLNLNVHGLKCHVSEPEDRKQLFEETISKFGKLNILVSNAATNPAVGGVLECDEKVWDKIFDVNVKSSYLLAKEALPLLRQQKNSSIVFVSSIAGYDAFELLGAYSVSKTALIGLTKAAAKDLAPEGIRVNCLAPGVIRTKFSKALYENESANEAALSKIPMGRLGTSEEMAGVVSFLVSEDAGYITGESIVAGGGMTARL
UniProt Q9VU35: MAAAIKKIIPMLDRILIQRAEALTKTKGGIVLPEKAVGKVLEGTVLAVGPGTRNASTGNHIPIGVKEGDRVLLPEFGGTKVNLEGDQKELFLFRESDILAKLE
UniProt Q9VD14: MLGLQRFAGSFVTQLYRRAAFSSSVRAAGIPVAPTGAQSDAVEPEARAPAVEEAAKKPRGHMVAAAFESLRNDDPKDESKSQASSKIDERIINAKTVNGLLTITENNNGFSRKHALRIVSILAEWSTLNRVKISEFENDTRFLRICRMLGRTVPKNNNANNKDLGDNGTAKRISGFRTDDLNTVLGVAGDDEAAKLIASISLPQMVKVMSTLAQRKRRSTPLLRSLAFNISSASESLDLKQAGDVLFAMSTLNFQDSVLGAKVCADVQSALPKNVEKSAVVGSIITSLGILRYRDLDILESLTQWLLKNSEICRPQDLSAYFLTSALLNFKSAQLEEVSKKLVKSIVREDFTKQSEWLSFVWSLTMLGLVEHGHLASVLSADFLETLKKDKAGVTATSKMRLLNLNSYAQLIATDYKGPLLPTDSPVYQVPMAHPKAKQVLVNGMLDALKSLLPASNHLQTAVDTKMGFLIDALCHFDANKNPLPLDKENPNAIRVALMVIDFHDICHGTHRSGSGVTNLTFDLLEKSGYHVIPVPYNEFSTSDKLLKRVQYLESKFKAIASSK
UniProt O97125: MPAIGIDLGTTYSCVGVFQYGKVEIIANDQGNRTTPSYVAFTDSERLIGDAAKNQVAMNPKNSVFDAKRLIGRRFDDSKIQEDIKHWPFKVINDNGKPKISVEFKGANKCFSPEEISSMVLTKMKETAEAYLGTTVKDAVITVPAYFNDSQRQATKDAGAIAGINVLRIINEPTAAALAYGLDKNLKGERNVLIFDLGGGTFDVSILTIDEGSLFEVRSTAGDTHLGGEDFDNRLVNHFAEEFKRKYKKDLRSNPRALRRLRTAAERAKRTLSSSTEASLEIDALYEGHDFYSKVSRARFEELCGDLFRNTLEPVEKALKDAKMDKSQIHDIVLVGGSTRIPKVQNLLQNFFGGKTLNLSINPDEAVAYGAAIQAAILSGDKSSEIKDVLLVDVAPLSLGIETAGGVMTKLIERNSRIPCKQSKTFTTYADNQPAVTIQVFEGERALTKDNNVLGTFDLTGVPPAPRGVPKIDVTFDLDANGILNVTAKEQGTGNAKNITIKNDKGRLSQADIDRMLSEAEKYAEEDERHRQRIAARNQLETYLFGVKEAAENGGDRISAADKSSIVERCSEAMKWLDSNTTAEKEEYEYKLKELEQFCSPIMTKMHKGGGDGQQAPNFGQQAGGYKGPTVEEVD
UniProt Q9VQD7: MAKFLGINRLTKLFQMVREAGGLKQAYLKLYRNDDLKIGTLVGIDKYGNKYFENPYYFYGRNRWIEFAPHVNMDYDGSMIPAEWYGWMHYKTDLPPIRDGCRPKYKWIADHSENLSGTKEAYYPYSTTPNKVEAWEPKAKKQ
UniProt O76742: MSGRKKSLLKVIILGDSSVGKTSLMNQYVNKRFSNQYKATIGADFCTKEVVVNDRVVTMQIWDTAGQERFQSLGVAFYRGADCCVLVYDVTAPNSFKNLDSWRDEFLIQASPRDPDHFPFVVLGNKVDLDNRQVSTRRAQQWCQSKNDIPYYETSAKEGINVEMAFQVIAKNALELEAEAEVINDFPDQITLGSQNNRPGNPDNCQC
UniProt Q9V470: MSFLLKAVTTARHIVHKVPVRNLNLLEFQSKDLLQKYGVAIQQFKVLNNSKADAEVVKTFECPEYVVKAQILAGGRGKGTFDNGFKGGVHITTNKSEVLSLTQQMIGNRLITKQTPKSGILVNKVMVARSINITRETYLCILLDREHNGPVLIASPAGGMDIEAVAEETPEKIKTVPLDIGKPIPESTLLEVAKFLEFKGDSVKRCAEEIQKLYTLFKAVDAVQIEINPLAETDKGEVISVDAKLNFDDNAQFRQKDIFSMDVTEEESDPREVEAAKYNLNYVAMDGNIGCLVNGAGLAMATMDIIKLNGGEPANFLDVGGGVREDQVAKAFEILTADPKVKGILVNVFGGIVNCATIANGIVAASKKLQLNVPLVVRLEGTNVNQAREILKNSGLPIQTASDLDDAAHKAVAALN
UniProt A1Z9E3: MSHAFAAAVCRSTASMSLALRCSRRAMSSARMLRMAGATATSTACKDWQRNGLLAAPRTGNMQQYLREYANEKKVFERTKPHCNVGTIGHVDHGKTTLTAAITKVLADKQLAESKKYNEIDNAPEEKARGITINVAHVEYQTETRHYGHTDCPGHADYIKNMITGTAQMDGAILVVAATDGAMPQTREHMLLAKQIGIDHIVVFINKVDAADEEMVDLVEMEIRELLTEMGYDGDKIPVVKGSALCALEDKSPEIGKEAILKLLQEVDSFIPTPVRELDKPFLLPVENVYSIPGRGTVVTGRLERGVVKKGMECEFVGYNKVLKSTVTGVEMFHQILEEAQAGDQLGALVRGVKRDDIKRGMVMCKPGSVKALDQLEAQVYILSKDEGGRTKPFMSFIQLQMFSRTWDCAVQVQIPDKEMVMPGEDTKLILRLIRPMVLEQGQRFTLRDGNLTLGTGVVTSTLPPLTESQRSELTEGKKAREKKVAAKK

B1: bad egg (protein, UniProt Q8T3L6 24-379)
chain: SDAAKATTETSALLQNAEKRQQLLNELSEPLEQKGRPAIDPKETSVMLFPGQGTQYVGMAKDLLRFPGARRIFELANEVLKYDLLKICLEGPREKLNRTEHAQLAVMVSSLAALEQLREERPKAIETCVAAAGFSLGEITALVYADALPFDKALRLVQVRATAMQAACDQAAGAMAMTLYGPDTNLGEACARAQQWCLDKGVESPYCGIANYMYPHCKVVAGNVEALEFLEQNAKSFKIRRMKRLAVSGAFHTPLMQSAVEPFTKALKTVRLQDPVIRVYSNVDGKPYRHAKHILTQLPKQIVRPVKWEQTLHEMYERKQGVDFPRTFECGPGKGLVQVLEKVNAKAAQSSFNVIA
B2: Electron transfer flavoprotein-ubiquinone oxidoreductase (protein, UniProt Q7JWF1 24-604)
chain: DVAKYPRITTHYTLNPREKDERWTEVDMERCVEEVDLVIVGGGPAGMSAAIRAKQLAAEKDQEIRVCVVEKAAEVGGHILSGAVIDPISLNELIPDWQEQGAPLNTPVTKDTFSFLTGSGRISIPVFKGWPMDNHGNYVVRLGHLVKWLGDQAEALGVEIYPGCAASEVLFHEDGSVKGIATNDVGIAKSGAPKDTFARGMELHAKTTIFAEGCRGHLTKQIMQKFGLNEGSEPQAYGIGLKEVWEIAPEKHQPGLVEHTIGWPLDRFTYGGSFLYHLNEPTPTIAVGFVVGLNYKNPWLSPFQEFQRFKTHPKVRDVFEGATRIAYGARAINEGGFQSLPQKLSFPGGCLVGCSAGFLNVPRIKGSHYAMKSGMLAAESAFEAINADAQSTAGVEPTGYAEKIKDSFVWKDLYSVRNVHPSFHNPLGLYGGLVLSGFSIFMGGREPWTLKHGPQDHESLKPASSCPPIVYPKPDGKISFDLLSSVALTGTNHEGDQPAHLTLKDDRIPVDHNLALYEGPEQRFCPAGVYEYVPNEEGGNMKLQINAQNCIHCKTCDIKDPKQNINWVVPEGGGGPAYNGM
B3: Enigma (protein, UniProt Q5U117 27-639)
chain: STKATSSSLDSQHQDAATTEGGRAESVEESPEQQRKLPTREPLAKNFFIGVVDKELLAYPEVIPRDEMAQLENSLLPLKNYFVEPRETEETSPETLRQLGLYGLNVSTDYEGKGYGWSASLMASEPDSTDINVTLGLQTHRVVVDLLKEVGTPLQQQRYLQDLATGKLIGTEAIYEISPPEEDYFNTTAELFPEYGKWQLNGEKSFVICTPGERQLFLVLAQTQQPNVPGVLGRGTTIFLVDSQQEGVRLGEKHATFGCRKAEIRRVHFEGVKLGEDQVVGLPHDGNRYSEQLVRSSRLRGSLVGLSLAKKLLNELAQYTVNTTQCGVQLQDLELTRIHMSRAMCSVYAMESMLYLTAGLLDEFRAQDVTLESAITKYFTLRQVYAIASQNLGVVGPKSLLSGETTELGLRDAAQLCTQGESLDTLGMFIALTGLQHAGQAMNTGVRKSRNPLFNPGHIFGKFLDNNSIDNPKTKMQLSEHVHPSLEAAAQCIELSVARLQMAVELMFTKHGNAVVERQSEMQRLAEVGTLIYAMWASVARASRSYCIGLPLADHELLTATAICSEGRDRVRTLCTEIYGGHFVNNDNNLVRLSKQVAKSKGYFAVHPLTFNF
B4: Medium-chain acyl-CoA dehydrogenase (protein, UniProt Q9VSA3 23-419)
chain: AAVSHVSPNGTSFALTEDQLQLQELARKFTREEIIPVAAQYDKSGEYPWPIIKKAWELGLMNNHIPADIGGLDLDVFTTCLSAEELAYGCTGIMTALEASGLGQTPVILSGNKEQKKKYLGRLLEEPLVAAYCVTEPGAGSDVSGIKTRAEKKGDEWVINGQKMWITNGGVANWYFVLARTNPDPKCPPSKAFTGFIVERDSPGLTPGRKELNMGQRASDTRGITFEDVRVPKENVLIGEGAGFKIAMGTFDKTRPPVAAGAVGLAQRCLDEALKYALERKTFGVPIAYHQAVQFMLADMAIGVETSRLAWRLSAWEIDQGRRNSYYASIAKCHAADMANKIASDAVQIFGGNGFNSEYPVEKLMRDAKIYQIYEGTSQIQRLIISRNMYEAAKGQA
B5: CG16935 [Trans-2-enoyl-CoA reductase (NADPH)] (protein, UniProt Q9V6U9 20-357)
chain: SVVAKSLKYTQHGEPQEVLQLVEDKLPDPKDNQVLVKILAAPINPADINTIQGKYPVKPKFPAVGGNECVAEVICVGDKVKGFEAGQHVIPLASGLGTWTTHAVYKEDQLLIVSKKVGLAEAATSTVNPTTAYRMLKDFVQLCPGDTVIQNGANSAVGQAVHQLCRAWGINSVGIVRDRPEIAELKQMLQCLGATEVLTEAEIRTSDIFKSGKLKKPRLAFNCVGGKSATEVSRHLDNGGVLVTYGGMSREPVTVATGPLIFKDIAFRGFWMTRWSKENYSSPERSKMFKEIFELMEQGKFVAPNHEMVPLAKFKDAAAAALSFKGFTGKKYILDMSI
B6: Methylcrotonoyl-CoA carboxylase 2 (protein, UniProt Q9V9A7 30-578)
chain: LHSEVDKQSAEYKENAREMASLVGDLRNFTSQVLKGGGQKAIERHTSRGKLLARERINLLLDKGSPFLELSALAGHELYGEEVVNSGGIVTGVGRVCGTECLVVANDATVKGGSYYPITVKKHLRAQEIAQENRLPCIYLVDSGGANLPRQADVFPDKLHFGRIFYNQANMSAQGIPQIAVVMGSCTAGGAYVPAMADESIIVKKQGTIFLAGPPLVKAATGEEVSAEDLGGADLHCKTSGVTDHYALDDEHALYLARQIVSNLNLSATNSYNDQLMHSSQVNFQTATPPSAVEEPRYDAEELYGIVGPNLTKSFDVREVIARIVDGSRFTEFKKLYGETLVCGFAKLYGHTVGIVGNNGVLFSESALKGAHFIQLCAQRKIPLVFLQNITGFMVGRDAEANGIAKNGAKMVTAVACANVPKFTVIIGGSYGAGNYGMCGRAYSPRFLYMWPNSRISVMGGTQAANVMAQITEDQRKRAGKEFSEEEAQKLKAPIVEMFEAEGSPYYSTARLWDDGIIDPANTRQILGLSLKAALNNAGQETKFGVFRM

Each molecule was assayed against Drosophila melanogaster ribonuclease H1, V5/His epitope-tagged (Drosophila melanogaster) (UniProt A1Z769) (assay: affinity purification with mass spectrometry; S2 cells expressing the tagged RNase H1 bait, cross-linked in vivo with 1% formaldehyde, RIPA lysis, RNase A/DNase I/Benzonase treatment, anti-V5 immunoprecipitation, LC-MS/MS; hits found in all 5 replicates of a bait and absent from all mtYFP controls).

Row | binding | Molecule
1 | binds | Arc42 [Short-chain acyl-CoA dehydrogenase] (from UniProt Q9VDT1)
2 | binds | CG2794 (from UniProt Q9VPR3)
3 | binds | CG4860 [Short-chain acyl-CoA dehydrogenase] (from UniProt Q9VGC2)
4 | binds | CG5590 (from UniProt Q9VB10)
5 | binds | CG5599 (from UniProt Q9VXY3)
6 | binds | CG7920, isoform A (from UniProt Q9VAC1)
7 | binds | CG8778 [enoyl-CoA hydratase] (from UniProt A1Z934)
8 | binds | CG8993 (from UniProt Q9W022)
9 | binds | CG10194 (from UniProt Q7JVR6)
10 | binds | CG10340 (from UniProt Q9VES8)
11 | binds | CG10672 [Carbonyl reductase (NADPH)] (from UniProt Q9VRJ4)
12 | binds | CG11267 [Hsp10 chaperonin subunit] (from UniProt Q9VU35)
13 | binds | CG13126 (from UniProt Q9VL60)
14 | binds | CG13850 (from UniProt Q9VD14)
15 | binds | Heat shock protein 68 (from UniProt O97125 1-635)
16 | binds | Leucyl-tRNA synthetase, mitochondrial (from UniProt Q9VZ82)
17 | binds | NADH dehydrogenase (ubiquinone) B17.2 subunit (from UniProt Q9VQD7)
18 | binds | Rab7 (from UniProt O76742 1-207)
19 | binds | Succinyl-coenzyme A synthetase β subunit, GDP-forming (from UniProt Q9V470)
20 | binds | mitochondrial elongation factor Tu (from UniProt A1Z9E3)

Molecular target: Drosophila melanogaster ribonuclease H1, V5/His epitope-tagged (Drosophila melanogaster) (UniProt A1Z769)
Experiment: as above
Remark: another data set of the same source

Row | binding | Molecule
21 | binds | B1
22 | binds | B2
23 | binds | B3
24 | binds | B4
25 | binds | B5
26 | binds | B6

These are yes or no findings as the source states them, for the method shown. In cells and extracts the contact can be indirect. Here binding means that the protein was enriched with, or labelled near, the bait; the list need not be complete.
